Taken from: PubChem BioAssay AID743121 (NCATS, 2013)

Aim: 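Genes whose silencing strengthens cell killing by camptothecin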 (primary screen)
Cells: MDA-MB-231 cells, a human breast cancer line
Reagent: single siRNA against human genes, 20 nM siRNA (0.8 pmol per well)
Timing: 120 h (drug added 48 h after transfection, read 72 h later)
Treatment: camptothecin 20 nM (about EC30) for 72 h; vehicle 0.1% DMSO in parallel plates
Detection: 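Cell viability by ATP luminescence (CellTiter-Glo) as % of non-targeting siRNA wells, and the log2 ratio of viability without drug over viability with camptothecin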
Direction: log2 vehicle/camptothecin viability: higher = stronger sensitisation to camptothecin; viability with camptothecin and viability without drug: higher = more viable cells
Hit rule: 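Active genes have an RSA gene-level p-value below 0.001, computed from the ratios of their separate siRNAs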
This is a random part of about 26,000 deposited reagents. 167 of them (0.63%) were called active. 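Calls are per gene from RSA p-values that are not deposited; an individual active-marked siRNA can sensitise only weakly.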 Reagents against one gene are numbered here.

target gene	reagent	log2 vehicle/camptothecin viability	viability with camptothecin (% of control)	viability without drug (% of control)	outcome
ELAVL4 (ELAV like RNA binding protein 4)	1	0.049	41.6	43.1	inactive
ELAVL4 (ELAV like RNA binding protein 4)	2	-0.117	83.8	77.3	inactive
ELAVL4 (ELAV like RNA binding protein 4)	3	-0.138	76.1	69.2	inactive
DECR1 (2,4-dienoyl-CoA reductase 1)	1	-0.0175	86	84.9	inactive
DECR1 (2,4-dienoyl-CoA reductase 1)	2	-0.128	62.7	57.4	inactive
DECR1 (2,4-dienoyl-CoA reductase 1)	3	-0.209	96.4	83.4	inactive
DECR1 (2,4-dienoyl-CoA reductase 1)	4	0.0536	75.6	78.4	inactive
FDFT1 (farnesyl-diphosphate farnesyltransferase 1)	1	-0.501	69.8	49.3	inactive
FDFT1 (farnesyl-diphosphate farnesyltransferase 1)	2	-0.0168	71	70.1	inactive
FDFT1 (farnesyl-diphosphate farnesyltransferase 1)	3	0.311	47.5	58.9	inactive
FBXO6 (F-box protein 6)	1	-0.232	71.5	60.9	inactive
FBXO6 (F-box protein 6)	2	0.0418	65.8	67.8	inactive
FBXO6 (F-box protein 6)	3	-0.569	13.3	8.97	inactive
RBBP6 (RB binding protein 6, ubiquitin ligase)	1	-0.0349	24	23.4	inactive
RBBP6 (RB binding protein 6, ubiquitin ligase)	2	-0.272	82.1	68	inactive
RBBP6 (RB binding protein 6, ubiquitin ligase)	3	-0.16	70.6	63.2	inactive
RBBP6 (RB binding protein 6, ubiquitin ligase)	4	0.294	18.9	23.1	inactive
MRPS17 (mitochondrial ribosomal protein S17)	1	-0.432	78	57.8	inactive
MRPS17 (mitochondrial ribosomal protein S17)	2	-0.271	20.9	17.3	inactive
MRPS17 (mitochondrial ribosomal protein S17)	3	-0.0443	103	99.8	inactive
MRPS17 (mitochondrial ribosomal protein S17)	4	0.0397	92.6	95.2	inactive
NME9 (NME/NM23 family member 9)	1	0.525	36.1	51.9	inactive
NME9 (NME/NM23 family member 9)	2	-0.282	68.5	56.3	inactive
NME9 (NME/NM23 family member 9)	3	-0.308	113	91.1	inactive
NME9 (NME/NM23 family member 9)	4	0.879	44.4	81.6	inactive
MFNG (MFNG O-fucosylpeptide 3-beta-N-acetylglucosaminyltransferase)	1	-0.0817	114	108	inactive
MFNG (MFNG O-fucosylpeptide 3-beta-N-acetylglucosaminyltransferase)	2	-0.196	86.2	75.2	inactive
MFNG (MFNG O-fucosylpeptide 3-beta-N-acetylglucosaminyltransferase)	3	-0.655	66.6	42.3	inactive
MFNG (MFNG O-fucosylpeptide 3-beta-N-acetylglucosaminyltransferase)	4	1.62	6.34	19.5	inactive
EBI3 (Epstein-Barr virus induced 3)	1	-0.324	61.6	49.2	inactive
EBI3 (Epstein-Barr virus induced 3)	2	-0.644	36.8	23.6	inactive
EBI3 (Epstein-Barr virus induced 3)	3	-0.31	63.6	51.3	inactive
KCNJ12 (potassium inwardly rectifying channel subfamily J member 12)	1	-0.593	15.9	10.6	inactive
KCNJ12 (potassium inwardly rectifying channel subfamily J member 12)	2	-0.531	48.9	33.8	inactive
KCNJ12 (potassium inwardly rectifying channel subfamily J member 12)	3	-0.144	31.2	28.3	inactive
KCNJ12 (potassium inwardly rectifying channel subfamily J member 12)	4	0.176	95.4	108	inactive

Copied from the list:
For “viability without drug (% of control)”, MFNG (MFNG O-fucosylpeptide 3-beta-N-acetylglucosaminyltransferase) #2 reads 75.2
EBI3 (Epstein-Barr virus induced 3) #1, viability without drug (% of control): 49.2
Under “viability with camptothecin (% of control)”, MFNG (MFNG O-fucosylpeptide 3-beta-N-acetylglucosaminyltransferase) #3 has 66.6
For “log2 vehicle/camptothecin viability”, NME9 (NME/NM23 family member 9) #4 shows 0.879
For “viability without drug (% of control)”, MRPS17 (mitochondrial ribosomal protein S17) #1 has 57.8
Under “log2 vehicle/camptothecin viability”, DECR1 (2,4-dienoyl-CoA reductase 1) #4 has 0.0536

The results go on:
target gene	reagent	log2 vehicle/camptothecin viability	viability with camptothecin (% of control)	viability without drug (% of control)	outcome
CDC14B (cell division cycle 14B)	1	-0.0834	84.9	80.2	inactive
CDC14B (cell division cycle 14B)	2	-0.0445	67.6	65.5	inactive
CDC14B (cell division cycle 14B)	3	-0.235	86.8	73.8	inactive
CDC14B (cell division cycle 14B)	4	-0.193	99.9	87.4	inactive
LTBP2 (latent transforming growth factor beta binding protein 2)	1	-0.198	116	101	inactive
LTBP2 (latent transforming growth factor beta binding protein 2)	2	0.533	25.1	36.3	inactive
LTBP2 (latent transforming growth factor beta binding protein 2)	3	-0.147	113	103	inactive
LTBP2 (latent transforming growth factor beta binding protein 2)	4	-0.065	99.7	95.4	inactive
STX1B (syntaxin 1B)	1	-0.0499	70	67.6	inactive
STX1B (syntaxin 1B)	2	0.0142	90.5	91.4	inactive
STX1B (syntaxin 1B)	3	-0.705	102	62.5	inactive
STX1B (syntaxin 1B)	4	-0.201	74	64.3	inactive
TBP (TATA-box binding protein)	1	-0.262	94.4	78.7	inactive
TBP (TATA-box binding protein)	2	-0.382	79.5	61	inactive
TBP (TATA-box binding protein)	3	-0.09	26	24.4	inactive
ITGAX (integrin subunit alpha X)	1	-0.28	67.4	55.5	inactive
ITGAX (integrin subunit alpha X)	2	-0.0287	90.2	88.4	inactive
ITGAX (integrin subunit alpha X)	3	-0.356	49.9	39	inactive
UBB (ubiquitin B)	1	0.819	7.18	12.7	inactive
UBB (ubiquitin B)	2	-0.423	75.3	56.2	inactive
UBB (ubiquitin B)	3	-0.275	104	86.3	inactive
POLL (DNA polymerase lambda)	1	-0.389	64.3	49.1	inactive
POLL (DNA polymerase lambda)	2	-0.32	81.4	65.2	inactive
POLL (DNA polymerase lambda)	3	-0.188	57.1	50.1	inactive
HEMK2	1	-0.376	112	86.2	inactive
HEMK2	2	-0.207	48.6	42.1	inactive
HEMK2	3	-0.0273	45.2	44.3	inactive
HEMK2	4	-0.405	91.8	69.4	inactive
GLIPR1L1 (GLIPR1 like 1)	1	0.0852	114	121	inactive
GLIPR1L1 (GLIPR1 like 1)	2	-0.156	50	44.9	inactive
GLIPR1L1 (GLIPR1 like 1)	3	0.279	46.4	56.3	inactive
GLIPR1L1 (GLIPR1 like 1)	4	0.354	37.6	48.1	inactive
